{"source": "patent US9631180B2", "about": "“Recombinant manganese oxidase” (OREGON HEALTH & SCIENCE UNIVERSITY, priority 2013, dated 2017)", "origin": "cited, not measured here", "system": "Bacillus subtilis CotA", "details": "described in Durão P et al, 2008; cited from earlier work", "note": "For at least one compound, name, drawing or mass did not settle the structure."}
{"compound": "COc1cccc(OC)c1O", "note": "[2,6-DMP, Dimethoxyphenol]", "values": [{"measurement": "Km", "value": 216, "unit": "µM"}, {"measurement": "kcat", "value": 80, "unit": "s⁻¹"}]}
